Screen size: about 220,000 compounds; about 770 (0.35%) were called active. The shares of active, inactive and inconclusive entries below differ from those in the screen. Cut-off read from the data, not from the text of the source: active = binding response below about 49% or above about 150%; inconclusive = no clear call, values can overlap the other calls; inactive = in between.
Biological target: Guanine nucleotide-binding protein G(o) subunit alpha (Homo sapiens) (UniProt P09471)
Assay: RGS7-Galphao binding modulators, primary screen, biochemical, multiplexed bead flow cytometry (AID 1439);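 note: fluorescent Galphao held in activated GDP-AlF4 state binding bead-coupled RGS7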
Conditions: at 10 µM, actives lie on both sides

By UniProt entry, the sequences of proteins in these tests, tags left out.
UniProt P09471, whole entry, looked up: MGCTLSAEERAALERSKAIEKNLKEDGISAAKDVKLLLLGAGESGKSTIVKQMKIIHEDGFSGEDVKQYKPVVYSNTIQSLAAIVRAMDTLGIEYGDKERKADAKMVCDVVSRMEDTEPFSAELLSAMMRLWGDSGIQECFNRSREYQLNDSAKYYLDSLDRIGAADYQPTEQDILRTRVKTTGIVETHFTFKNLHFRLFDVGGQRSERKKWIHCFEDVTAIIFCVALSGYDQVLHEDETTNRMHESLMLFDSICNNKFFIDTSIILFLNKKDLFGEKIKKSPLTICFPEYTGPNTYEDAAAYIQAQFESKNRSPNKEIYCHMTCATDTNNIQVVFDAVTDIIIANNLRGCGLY

SMILES	binding response (% of control)
Cc1onc(-c2ccc(Cl)cc2Cl)c1-c1csc(N/N=C/c2ccccc2)n1	inconclusive: 130%
O=C(NCc1ccccc1)c1ccc(CN(c2ccccn2)S(=O)(=O)c2ccccc2)cc1	inactive: 90.1%
CC(CN(C)C)CN1c2ccccc2CCc2ccccc21 (centres undefined)	inconclusive: 96.7%
CCOc1ccc(-c2cc(N)n(S(=O)(=O)c3cccc4nsnc34)n2)cc1	inconclusive: 109%
COc1ccc(/C=C/C(=O)Nc2c(C(=O)O)[nH]c3ccccc23)cc1OC	inconclusive: 41.9%
S=C(NCc1ccco1)Nc1ccc(Oc2ccccc2)cc1	inactive: 106%
CCOC(=O)c1cncc(O)c1	inconclusive: 180%
Cc1cc(N2CC(C)OC(C)C2)nc(C(C)C)n1 (centres undefined)	inconclusive: 99.8%
COc1cccc(C2CCCCN(C)C2=O)c1 (centres undefined)	inconclusive: 108%
Nc1scc[n+]1Cc1cccc2cccnc12	inconclusive: 116%
CC(C)(C)C1(O)CC(C(F)(F)F)=NN1C(=O)Cc1ccc([N+](=O)[O-])cc1 (centres undefined)	inactive: 96.9%
Cc1ccc(NC(=O)CN(C)C(=O)CSc2nnnn2C)cc1	inconclusive: 131%
C#CCSc1nc(C)cc(C(=O)OCC)c1C#N	inconclusive: 78.7%
O=S(=O)([N-]c1nc2ccccc2nc1-[n+]1ccc(CCCc2ccccc2)cc1)c1cccs1	inconclusive: 56.7%
CCc1cc2c(=O)[nH]c(Cc3ccc(OC)cc3)nc2s1	inactive: 87.2%
COc1ccccc1-c1ccc(SCc2cccc(F)c2)nn1	inconclusive: 74.3%
NC(=O)C1(N2CCCCC2)CCN(C(=O)NC23CC4CC(CC(C4)C2)C3)CC1	inactive: 99.6%
COc1cccc(Oc2nc(-c3ccncc3)nc3ccccc23)c1	inconclusive: 131%
O=c1cc(-c2ccc(Cl)cc2)[nH]c2ccccc12	inconclusive: 112%
Nc1nnc(-c2cn(-c3ccccc3)nc2-c2ccc(Cl)cc2)o1	inconclusive: 308%

SMILES	binding response (% of control)
CCCNC(=O)Nc1ccc(F)c(Cl)c1	inconclusive: 102%
COC(=O)[C@@H]1C[C@@]2(O)[C@@H](O)[C@@H](O)[C@@H](O)C[C@H]2N1Cc1ccc(C(F)(F)F)cc1	inconclusive: 109%
CC(C)NC(=O)COC(=O)Cn1[nH]c(=O)c2ccccc2c1=O	inconclusive: 114%
Cc1c(Cl)ccc2c(C(=O)NCCN3CCCCC3)cc(-c3ccccn3)nc12	inconclusive: 121%
COc1ccc2c(Cl)c(C(=O)NN3CCN(C)CC3)sc2c1	inconclusive: 100%
Cc1c(Cl)cccc1NC(=S)N(Cc1ccccc1)Cc1cccnc1	inconclusive: 84.3%
O/N=C/c1ccnc(SCc2ccc(Cl)cc2)n1	inconclusive: 140%
CCOC(=O)/C(C#N)=C/Nc1ccccc1OC(F)(F)F	inconclusive: 62.7%
COC(=O)c1cc(N=Nc2sc(N)nc2C)cc(C(=O)OC)c1	inconclusive: 89.3%
Cc1c(Cl)cccc1NC(=O)Nc1ccc(C(N)=O)cc1	inactive: 98%
CCn1ccnc1CNC(=O)CC1C(=O)NCCN1Cc1ccc(OC)cc1OC (centres undefined)	inconclusive: 97.2%
C=C(C)C(=O)N1CC2(CC(c3cccc(NC(=O)COc4ccc(Cl)cc4)c3)=NO2)C[C@@H]1C(N)=O (some centres undefined)	inconclusive: 117%
Cc1cc(-c2nc(C)c(-c3nnc(SCC(=O)Nc4ccc(Cl)cc4)n3C)s2)no1	inconclusive: 75.6%
CC1CC(C)CN(C(=O)c2ccc(CNc3c(N4CCCC4)c(=O)c3=O)cc2)C1 (centres undefined)	inconclusive: 91.9%
Cc1ccc(N(CC(=O)O)S(C)(=O)=O)cc1	inconclusive: 100%
CCC(=O)N(CCC1(c2ccccc2OC)CCOC(C(C)C)C1)Cc1ccco1 (centres undefined)	inconclusive: 147%
Brc1ccc(Nc2ncnc3[nH]ncc23)cc1	inconclusive: 88.9%
COC(=O)c1c(-c2cccc(C)c2)csc1NC(=O)C1CCCO1 (centres undefined)	inconclusive: 79.4%
CCN1CCN(c2oc(-c3ccco3)nc2C#N)CC1	inconclusive: 93.7%
Nc1nonc1-n1nnc(C(=O)N/N=C/c2cccc(Cl)c2)c1CSc1ccccc1	inconclusive: 106%

SMILES	binding response (% of control)
N#Cc1c(-c2cccs2)nc(SCC(=O)c2ccc(Br)cc2)[nH]c1=O	inconclusive: 88.9%
Cc1ccc(NC(=S)NC2CCN(Cc3ccccc3)CC2)cc1C	inconclusive: 89.8%
c1ccc(Oc2ccc(-n3cnnn3)cc2)cc1	inactive: 97.2%
CCN(c1ccccc1)S(=O)(=O)c1ccc(OC)c(NC(=O)CN(C)C)c1	inconclusive: 84.8%
CC(=O)Nc1ccc(C(F)(F)F)cc1Cl	inconclusive: 150%
Cc1ccc(NC(=O)COC(=O)C2=COCCO2)c([N+](=O)[O-])c1	inconclusive: 106%
Cc1ccc(SCC(=O)Nc2ccc(-c3nc4ccccc4[nH]3)cc2)cc1	inactive: 104%
Nc1cnn(Cc2ccccc2F)c1	inconclusive: 73.1%
O=c1c2ccccc2c(-c2cccc(C(F)(F)F)c2)nn1-c1ccccc1	inconclusive: 112%
CC(C)(C)NC(=O)NC(=O)CN1CCN(S(=O)(=O)c2ccc3c(c2)OCCO3)CC1	inconclusive: 105%
Cc1cccc(-n2nnnc2SCC(=O)Nc2cccc(S(N)(=O)=O)c2)c1	inconclusive: 84.7%
COc1ccc(/C=C/C(=O)Nc2cccnc2)cc1OC	inconclusive: 106%
O=C(NNC(=O)c1nn(-c2ccc(F)cc2)ccc1=O)c1ccc(Cl)cc1	inconclusive: 108%
Cc1ccsc1/C=N/NC(=O)Cc1cccn1C	inactive: 99.8%
Nc1cc(=O)[nH]c(=O)n1-c1ccc(Cl)cc1	inconclusive: 69%
Cc1ccc(CNC(=O)Cn2c(=O)n(-c3ccccc3)c(=O)c3sccc32)cc1	inconclusive: 89.9%
CCOC(=O)Cn1c(=O)c(-c2cc(Br)ccc2N)nc2ccccc21	inconclusive: 83.4%
COc1ccc(NS(=O)(=O)c2cc(NC(=O)c3cc(F)c(F)c(F)c3F)ccc2N2CCCC2)cc1	inconclusive: 88.5%
CNC(=O)c1nc(C)c(C2(C)CC(c3ccccc3)=NO2)s1 (centres undefined)	inconclusive: 119%

For convenience, some entries already given.
SMILES	binding response (% of control)
CCN(c1ccccc1)S(=O)(=O)c1ccc(OC)c(NC(=O)CN(C)C)c1	inconclusive: 84.8%
CC(=O)Nc1ccc(C(F)(F)F)cc1Cl	inconclusive: 150%
Cc1ccc(NC(=O)COC(=O)C2=COCCO2)c([N+](=O)[O-])c1	inconclusive: 106%
Cc1ccc(SCC(=O)Nc2ccc(-c3nc4ccccc4[nH]3)cc2)cc1	inactive: 104%

— PubChem BioAssay AID1439 (NMMLSC, 2008)
